PubChem BioAssay AID743121 | NCATS – 2013
Test: 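Genes whose silencing strengthens cell killing by camptothecin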 (primary screen). System: MDA-MB-231 cells, a human breast cancer line. Knock-down reagent: single siRNA against human genes, 20 nM siRNA (0.8 pmol per well). Duration: 120 h (drug added 48 h after transfection, read 72 h later). Treatment: camptothecin 20 nM (about EC30) for 72 h; vehicle 0.1% DMSO in parallel plates. Read-out: 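CellTiter-Glo ATP signal, scaled to control siRNA as percent viability; sensitisation given as log2 of untreated divided by camptothecin-treated viability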. Reading the numbers: log2 vehicle/camptothecin viability: higher = stronger sensitisation to camptothecin; viability with camptothecin and viability without drug: higher = more viable cells. Hit rule: 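Each gene scored by redundant siRNA activity (RSA) over its individual siRNA ratios; a gene is called active at p < 0.001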.
In all, the deposit lists about 26,000 reagents; this is a random part of them. Over the whole deposit, 167 (0.63%) are marked active. 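Calls are per gene from RSA p-values that are not deposited; an individual active-marked siRNA can sensitise only weakly.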 Entries without a mark were called inactive. Reagents against one gene are numbered here.

| Target gene | reagent | log2 vehicle/camptothecin viability | viability with camptothecin (% of control) | viability without drug (% of control) |
| --- | --- | --- | --- | --- |
| SEC11A (SEC11 homolog A, signal peptidase complex subunit) | 1 | -0.178 | 107 | 95 |
| SEC11A (SEC11 homolog A, signal peptidase complex subunit) | 2 | -0.239 | 70.3 | 59.6 |
| SEC11A (SEC11 homolog A, signal peptidase complex subunit) | 3 | 0.00807 | 97.6 | 98.2 |
| SEC11A (SEC11 homolog A, signal peptidase complex subunit) | 4 | -0.407 | 112 | 84.4 |
| RASA1 (RAS p21 protein activator 1) | 1 | -0.256 | 90.8 | 76 |
| RASA1 (RAS p21 protein activator 1) | 2 | -0.0635 | 71.1 | 68.1 |
| RASA1 (RAS p21 protein activator 1) | 3 | -0.367 | 68 | 52.7 |
| RASA1 (RAS p21 protein activator 1) | 4 | -0.00863 | 75.8 | 75.4 |
| HACD1 (3-hydroxyacyl-CoA dehydratase 1) | 1 | -0.132 | 105 | 95.4 |
| HACD1 (3-hydroxyacyl-CoA dehydratase 1) | 2 | -0.526 | 96.3 | 66.9 |
| HACD1 (3-hydroxyacyl-CoA dehydratase 1) | 3 | 0.139 | 115 | 126 |
| HACD1 (3-hydroxyacyl-CoA dehydratase 1) | 4 | -0.126 | 89.8 | 82.3 |
| FOSL2 (FOS like 2, AP-1 transcription factor subunit) | 1 | -0.165 | 119 | 106 |
| FOSL2 (FOS like 2, AP-1 transcription factor subunit) | 2 | -0.458 | 58.9 | 42.9 |
| FOSL2 (FOS like 2, AP-1 transcription factor subunit) | 3 | -0.0312 | 66.1 | 64.7 |
| FOSL2 (FOS like 2, AP-1 transcription factor subunit) | 4 | -0.237 | 80.1 | 68 |
| MYF5 (myogenic factor 5) | 1 | -0.278 | 104 | 85.9 |
| MYF5 (myogenic factor 5) | 2 | 0 | 64.4 | 64.4 |
| MYF5 (myogenic factor 5) | 3 | -0.0466 | 101 | 97.4 |
| MYF5 (myogenic factor 5) | 4 | 0.00845 | 66.4 | 66.8 |

Look-ups from the list.
Under “viability without drug (% of control)”, SEC11A (SEC11 homolog A, signal peptidase complex subunit) #1 reads 95
For “viability without drug (% of control)”, SEC11A (SEC11 homolog A, signal peptidase complex subunit) #4 has 84.4
For “viability without drug (% of control)”, RASA1 (RAS p21 protein activator 1) #2 reads 68.1
Result for FOSL2 (FOS like 2, AP-1 transcription factor subunit) #1 in “viability without drug (% of control)”: 106
MYF5 (myogenic factor 5) #1, log2 vehicle/camptothecin viability: -0.278

The results go on:
| Target gene | reagent | log2 vehicle/camptothecin viability | viability with camptothecin (% of control) | viability without drug (% of control) |
| --- | --- | --- | --- | --- |
| MAPKAP1 (MAPK associated protein 1) | 1 | -0.0412 | 78.7 | 76.5 |
| MAPKAP1 (MAPK associated protein 1) | 2 | 0.244 | 45.5 | 53.8 |
| MAPKAP1 (MAPK associated protein 1) | 3 | -0.219 | 61.4 | 52.7 |
| MAPKAP1 (MAPK associated protein 1) | 4 | -0.22 | 79 | 67.8 |
| DHRS9 (dehydrogenase/reductase 9) | 1 | -0.483 | 105 | 74.8 |
| DHRS9 (dehydrogenase/reductase 9) | 2 | -0.17 | 102 | 90.8 |
| DHRS9 (dehydrogenase/reductase 9) | 3 | 0.149 | 65.2 | 72.4 |
| PLTP (phospholipid transfer protein) | 1 | 0.223 | 63.4 | 74 |
| PLTP (phospholipid transfer protein) | 2 | -0.158 | 23.4 | 21 |
| PLTP (phospholipid transfer protein) | 3 | -0.15 | 95.7 | 86.3 |
| PLTP (phospholipid transfer protein) | 4 | -0.413 | 73.6 | 55.3 |
